{"source": "paper PMC12209930", "about": "“A TATA-box-binding protein binds single-stranded DNA in two modes: To poly(G) tracts and to flexible DNA regions”", "key": {"GST": {"test_system": "GST", "assay": "EMSA", "details": "GST alone; 10 mM Tris-HCl pH 8.0, 0.15 M NaCl, 0.5 mM TCEP, 5% glycerol, 1 ug/ul BSA, 15 ng/ul salmon sperm DNA, 30 min on ice; probe 0.1 pmol/ul, competitor 200-fold excess; recombinant protein; label: 5'Cy5 (probe), unlabeled as competitor; single-stranded DNA"}, "[1]": {"target": "T1, gTBP (GST-gTBP) (Giardia intestinalis WB C6 (ATCC 50803)) (UniProt E2RU70)", "T1 sequence (looked up)": "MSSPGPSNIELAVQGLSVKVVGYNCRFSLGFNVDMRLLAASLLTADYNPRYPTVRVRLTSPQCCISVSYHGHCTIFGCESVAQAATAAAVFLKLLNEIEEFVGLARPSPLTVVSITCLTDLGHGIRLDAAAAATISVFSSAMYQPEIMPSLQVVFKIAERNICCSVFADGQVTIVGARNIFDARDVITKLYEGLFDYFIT", "assay": "EMSA", "details": "titration of complementary strand, annealed; 10 mM Tris-HCl pH 8.0, 0.15 M NaCl, 0.5 mM TCEP, 5% glycerol, 1 ug/ul BSA, 15 ng/ul salmon sperm DNA, 30 min on …; probe 0.1 pmol/ul, competitor 200-fold excess; recombinant protein; residues 1-200; protein details: N-terminal GST; label: 5'Cy5 on one strand"}, "[2]": {"target": "T1, gTBP (GST-gTBP) (Giardia intestinalis WB C6 (ATCC 50803))", "assay": "competition with a labelled probe", "details": "10 mM Tris-HCl pH 8.0, 0.15 M NaCl, 0.5 mM TCEP, 5% glycerol, 1 ug/ul BSA, 15 ng/ul salmon sperm DNA, 30 min on ice, probe 0.1 pmol/ul, competitor 200-fold excess, recombinant protein, residues 1-200, protein details: N-terminal GST, single-stranded DNA"}}, "note": "For some assays here: A negative result means that nothing was seen under these conditions. For some assays here: Protein sequences can lack the tags named with them. For some assays here: Weaker means in comparison with the reference protein, sequence or condition of that experiment. For some assays here: The exact form of at least one protein or probe is not confirmed.", "data": [{"sequence": "CATTTTTATTTGCCCCTTCCCGCGTCTTCTTTTTTAGCCCAAATCTGCGCCCTAC [H4-b]", "values": [{"measurement": "binding result", "setting": "GST", "value": "no binding"}]}, {"sequence": "GTAGGGCGCAGATTTGGGCTAAAAAAGAAGACGCGGGAAGGGGCAAATAAAAATG (double strand) [H4 duplex]", "values": [{"measurement": "binding result", "setting": "[1]", "value": "binds more weakly"}]}, {"sequence": "TAGAAGTGCACAGGGGCGCAGATTTCGGCTGC [H2B-a Left (L)]", "values": [{"measurement": "binding result", "setting": "[2]; vs H2B-a probe", "value": "binds more weakly"}]}, {"sequence": "TAGAAGTGCACAGGGGCGCAGATTTCGGCTGCGGAAGGGGGGAAAAAGCGGGCGGGAAAGAAAT (double strand) [H2B duplex]", "values": [{"measurement": "binding result", "setting": "[1]", "value": "binds more weakly"}]}, {"sequence": "TTTTTTTTTTTTTTTTTTTTTTTTTTTTTT [polyT(30)]", "values": [{"measurement": "binding result", "setting": "[2]; vs H4-a and H2B-a probes", "value": "no binding"}]}]}
